Data as given in PMC12292949.
Results are given in words; binding and its absence hold for the method and conditions named. Binding seen in cells or lysates may run through a third protein. Here binding means that the protein was enriched with, or labelled near, the bait; the list need not be complete.

Sequences of proteins named here, by UniProt entry; tags and fusion partners are left off.
UniProt Q6ZU65: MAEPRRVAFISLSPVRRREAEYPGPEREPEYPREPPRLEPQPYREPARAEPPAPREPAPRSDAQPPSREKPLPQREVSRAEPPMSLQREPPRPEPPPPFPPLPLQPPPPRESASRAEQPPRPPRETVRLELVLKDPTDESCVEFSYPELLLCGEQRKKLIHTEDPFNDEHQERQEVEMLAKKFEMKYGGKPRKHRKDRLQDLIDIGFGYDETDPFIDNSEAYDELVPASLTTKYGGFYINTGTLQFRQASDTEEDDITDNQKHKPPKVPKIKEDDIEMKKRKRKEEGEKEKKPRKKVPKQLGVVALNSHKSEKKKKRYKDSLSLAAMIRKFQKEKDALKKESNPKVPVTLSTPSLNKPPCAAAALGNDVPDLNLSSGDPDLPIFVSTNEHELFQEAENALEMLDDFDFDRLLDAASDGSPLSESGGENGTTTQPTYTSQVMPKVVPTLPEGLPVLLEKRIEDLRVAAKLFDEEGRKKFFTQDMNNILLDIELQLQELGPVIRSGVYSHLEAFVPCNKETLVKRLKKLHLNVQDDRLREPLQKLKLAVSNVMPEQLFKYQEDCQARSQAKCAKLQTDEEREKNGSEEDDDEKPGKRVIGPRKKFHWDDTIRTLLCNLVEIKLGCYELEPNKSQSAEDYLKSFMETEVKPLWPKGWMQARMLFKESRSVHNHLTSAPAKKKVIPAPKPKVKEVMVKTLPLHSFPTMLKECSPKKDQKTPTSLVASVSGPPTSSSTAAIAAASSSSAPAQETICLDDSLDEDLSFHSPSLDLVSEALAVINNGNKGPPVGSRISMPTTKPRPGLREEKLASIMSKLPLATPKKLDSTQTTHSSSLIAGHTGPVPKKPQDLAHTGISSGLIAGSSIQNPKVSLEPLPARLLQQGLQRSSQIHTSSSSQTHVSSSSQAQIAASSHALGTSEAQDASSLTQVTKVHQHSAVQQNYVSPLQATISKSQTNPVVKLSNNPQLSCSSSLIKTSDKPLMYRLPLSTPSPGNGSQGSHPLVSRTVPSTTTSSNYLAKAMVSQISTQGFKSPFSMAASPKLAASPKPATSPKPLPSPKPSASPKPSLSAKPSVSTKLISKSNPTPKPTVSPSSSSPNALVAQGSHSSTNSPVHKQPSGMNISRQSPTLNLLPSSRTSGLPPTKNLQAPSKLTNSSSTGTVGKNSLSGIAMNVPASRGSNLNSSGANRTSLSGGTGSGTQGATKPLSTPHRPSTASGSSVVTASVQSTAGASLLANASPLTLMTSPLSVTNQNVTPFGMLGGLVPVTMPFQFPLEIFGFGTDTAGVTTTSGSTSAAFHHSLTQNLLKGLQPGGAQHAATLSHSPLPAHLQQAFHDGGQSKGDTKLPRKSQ
UniProt Q9NPG3: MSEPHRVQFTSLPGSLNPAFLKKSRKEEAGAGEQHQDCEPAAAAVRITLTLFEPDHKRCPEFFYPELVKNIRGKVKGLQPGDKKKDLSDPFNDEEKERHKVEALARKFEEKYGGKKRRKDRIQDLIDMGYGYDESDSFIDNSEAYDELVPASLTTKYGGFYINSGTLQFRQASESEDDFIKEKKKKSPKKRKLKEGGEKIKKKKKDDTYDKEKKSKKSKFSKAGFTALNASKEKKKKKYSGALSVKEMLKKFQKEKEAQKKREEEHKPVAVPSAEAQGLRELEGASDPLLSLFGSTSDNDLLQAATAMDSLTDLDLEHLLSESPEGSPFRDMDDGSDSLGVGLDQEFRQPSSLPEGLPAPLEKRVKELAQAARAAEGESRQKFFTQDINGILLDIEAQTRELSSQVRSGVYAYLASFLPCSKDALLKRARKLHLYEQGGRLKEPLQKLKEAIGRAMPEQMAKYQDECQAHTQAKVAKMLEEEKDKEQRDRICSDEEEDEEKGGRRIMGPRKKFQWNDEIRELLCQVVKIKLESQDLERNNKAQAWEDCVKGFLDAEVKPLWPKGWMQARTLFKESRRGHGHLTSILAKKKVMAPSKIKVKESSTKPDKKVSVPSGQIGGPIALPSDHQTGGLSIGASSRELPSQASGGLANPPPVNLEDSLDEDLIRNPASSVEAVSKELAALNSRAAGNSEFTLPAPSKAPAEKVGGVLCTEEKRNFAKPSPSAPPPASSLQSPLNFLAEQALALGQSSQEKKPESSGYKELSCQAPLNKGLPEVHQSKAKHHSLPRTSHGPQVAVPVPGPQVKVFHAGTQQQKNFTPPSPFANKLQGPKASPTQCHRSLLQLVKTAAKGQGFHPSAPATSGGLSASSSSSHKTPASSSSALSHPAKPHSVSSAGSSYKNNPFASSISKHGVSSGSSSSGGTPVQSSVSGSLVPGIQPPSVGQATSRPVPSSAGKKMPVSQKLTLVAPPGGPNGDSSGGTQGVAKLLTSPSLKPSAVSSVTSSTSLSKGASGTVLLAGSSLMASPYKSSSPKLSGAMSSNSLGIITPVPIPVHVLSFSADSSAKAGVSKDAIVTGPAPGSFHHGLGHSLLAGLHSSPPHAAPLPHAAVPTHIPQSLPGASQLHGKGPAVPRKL
UniProt Q86U86: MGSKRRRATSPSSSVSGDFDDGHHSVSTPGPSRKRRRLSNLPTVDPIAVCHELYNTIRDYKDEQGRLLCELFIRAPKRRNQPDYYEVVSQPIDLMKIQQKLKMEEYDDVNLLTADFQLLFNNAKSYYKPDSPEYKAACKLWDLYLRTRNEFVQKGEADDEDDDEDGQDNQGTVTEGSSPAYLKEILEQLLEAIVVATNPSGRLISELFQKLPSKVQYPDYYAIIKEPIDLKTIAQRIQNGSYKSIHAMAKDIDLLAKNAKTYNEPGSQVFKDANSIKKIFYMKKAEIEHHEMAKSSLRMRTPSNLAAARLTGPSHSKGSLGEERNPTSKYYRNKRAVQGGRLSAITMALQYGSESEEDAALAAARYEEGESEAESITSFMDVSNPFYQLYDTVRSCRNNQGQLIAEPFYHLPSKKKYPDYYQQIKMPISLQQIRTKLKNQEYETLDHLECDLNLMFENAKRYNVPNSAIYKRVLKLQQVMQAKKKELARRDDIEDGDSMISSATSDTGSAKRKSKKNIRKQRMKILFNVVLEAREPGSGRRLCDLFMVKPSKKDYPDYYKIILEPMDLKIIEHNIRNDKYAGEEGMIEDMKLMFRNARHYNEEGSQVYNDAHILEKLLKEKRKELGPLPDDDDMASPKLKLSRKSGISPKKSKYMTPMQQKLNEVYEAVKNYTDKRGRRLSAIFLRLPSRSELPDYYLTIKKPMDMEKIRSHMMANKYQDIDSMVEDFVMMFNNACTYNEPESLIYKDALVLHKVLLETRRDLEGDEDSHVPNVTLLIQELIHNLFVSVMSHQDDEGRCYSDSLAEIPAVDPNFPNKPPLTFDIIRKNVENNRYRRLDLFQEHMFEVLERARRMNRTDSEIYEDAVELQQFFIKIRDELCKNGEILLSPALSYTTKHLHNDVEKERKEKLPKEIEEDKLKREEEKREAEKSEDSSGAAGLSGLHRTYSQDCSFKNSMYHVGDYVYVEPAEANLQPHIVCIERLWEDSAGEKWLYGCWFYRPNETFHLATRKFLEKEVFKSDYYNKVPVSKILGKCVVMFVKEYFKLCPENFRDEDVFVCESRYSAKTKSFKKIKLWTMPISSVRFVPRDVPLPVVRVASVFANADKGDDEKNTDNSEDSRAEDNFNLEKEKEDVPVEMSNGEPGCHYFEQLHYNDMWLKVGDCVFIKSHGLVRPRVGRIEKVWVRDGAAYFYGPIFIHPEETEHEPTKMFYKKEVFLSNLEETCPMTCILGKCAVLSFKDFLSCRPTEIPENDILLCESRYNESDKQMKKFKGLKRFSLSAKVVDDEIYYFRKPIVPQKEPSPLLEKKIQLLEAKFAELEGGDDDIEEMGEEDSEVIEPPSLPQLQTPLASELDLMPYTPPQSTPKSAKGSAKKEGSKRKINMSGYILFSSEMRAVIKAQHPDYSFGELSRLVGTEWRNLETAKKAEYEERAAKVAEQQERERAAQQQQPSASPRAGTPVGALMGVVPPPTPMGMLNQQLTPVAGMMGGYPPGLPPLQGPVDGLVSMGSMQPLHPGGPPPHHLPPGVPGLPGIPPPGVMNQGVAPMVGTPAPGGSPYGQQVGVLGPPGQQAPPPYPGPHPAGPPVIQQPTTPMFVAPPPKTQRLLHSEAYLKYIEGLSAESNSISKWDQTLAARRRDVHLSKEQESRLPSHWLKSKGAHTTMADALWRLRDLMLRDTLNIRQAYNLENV
UniProt O96019: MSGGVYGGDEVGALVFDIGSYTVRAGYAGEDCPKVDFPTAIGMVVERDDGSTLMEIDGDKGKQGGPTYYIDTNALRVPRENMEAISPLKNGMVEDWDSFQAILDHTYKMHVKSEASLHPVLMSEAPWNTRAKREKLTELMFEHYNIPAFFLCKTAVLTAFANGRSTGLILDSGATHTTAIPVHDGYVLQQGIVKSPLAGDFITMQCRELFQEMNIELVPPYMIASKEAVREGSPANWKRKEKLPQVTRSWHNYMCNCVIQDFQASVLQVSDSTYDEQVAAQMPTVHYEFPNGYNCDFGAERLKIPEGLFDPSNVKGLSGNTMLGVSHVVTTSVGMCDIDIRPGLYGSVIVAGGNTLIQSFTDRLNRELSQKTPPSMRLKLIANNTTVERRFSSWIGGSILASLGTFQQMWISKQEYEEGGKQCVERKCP
UniProt Q92922: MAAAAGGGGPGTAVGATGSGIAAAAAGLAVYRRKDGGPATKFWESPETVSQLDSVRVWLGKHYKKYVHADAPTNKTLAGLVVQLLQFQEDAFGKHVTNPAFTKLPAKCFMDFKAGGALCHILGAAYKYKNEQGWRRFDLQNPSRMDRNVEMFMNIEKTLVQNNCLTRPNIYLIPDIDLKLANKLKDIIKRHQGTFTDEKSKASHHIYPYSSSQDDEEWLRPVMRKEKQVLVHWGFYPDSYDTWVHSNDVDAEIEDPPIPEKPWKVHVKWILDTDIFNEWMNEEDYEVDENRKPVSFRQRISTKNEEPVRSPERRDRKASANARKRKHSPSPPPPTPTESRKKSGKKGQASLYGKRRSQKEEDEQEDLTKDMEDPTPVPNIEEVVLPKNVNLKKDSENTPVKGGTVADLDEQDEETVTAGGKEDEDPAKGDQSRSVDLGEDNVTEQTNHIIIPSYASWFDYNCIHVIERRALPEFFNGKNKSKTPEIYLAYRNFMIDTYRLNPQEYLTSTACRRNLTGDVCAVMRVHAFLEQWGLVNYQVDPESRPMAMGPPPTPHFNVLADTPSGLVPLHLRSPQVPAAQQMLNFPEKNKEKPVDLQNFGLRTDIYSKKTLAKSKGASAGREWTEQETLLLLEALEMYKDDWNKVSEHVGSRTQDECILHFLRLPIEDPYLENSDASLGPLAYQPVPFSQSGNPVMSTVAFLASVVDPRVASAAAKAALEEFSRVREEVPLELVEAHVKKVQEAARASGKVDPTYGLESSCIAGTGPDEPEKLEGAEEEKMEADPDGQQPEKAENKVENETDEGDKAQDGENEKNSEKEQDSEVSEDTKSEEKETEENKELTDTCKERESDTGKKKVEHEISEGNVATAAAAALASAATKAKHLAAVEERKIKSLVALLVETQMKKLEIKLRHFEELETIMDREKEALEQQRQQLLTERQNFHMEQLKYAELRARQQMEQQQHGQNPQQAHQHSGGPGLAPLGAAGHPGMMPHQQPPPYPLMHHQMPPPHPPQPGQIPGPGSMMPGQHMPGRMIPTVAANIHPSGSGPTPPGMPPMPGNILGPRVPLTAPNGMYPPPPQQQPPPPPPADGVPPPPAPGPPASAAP
UniProt Q9NPI1: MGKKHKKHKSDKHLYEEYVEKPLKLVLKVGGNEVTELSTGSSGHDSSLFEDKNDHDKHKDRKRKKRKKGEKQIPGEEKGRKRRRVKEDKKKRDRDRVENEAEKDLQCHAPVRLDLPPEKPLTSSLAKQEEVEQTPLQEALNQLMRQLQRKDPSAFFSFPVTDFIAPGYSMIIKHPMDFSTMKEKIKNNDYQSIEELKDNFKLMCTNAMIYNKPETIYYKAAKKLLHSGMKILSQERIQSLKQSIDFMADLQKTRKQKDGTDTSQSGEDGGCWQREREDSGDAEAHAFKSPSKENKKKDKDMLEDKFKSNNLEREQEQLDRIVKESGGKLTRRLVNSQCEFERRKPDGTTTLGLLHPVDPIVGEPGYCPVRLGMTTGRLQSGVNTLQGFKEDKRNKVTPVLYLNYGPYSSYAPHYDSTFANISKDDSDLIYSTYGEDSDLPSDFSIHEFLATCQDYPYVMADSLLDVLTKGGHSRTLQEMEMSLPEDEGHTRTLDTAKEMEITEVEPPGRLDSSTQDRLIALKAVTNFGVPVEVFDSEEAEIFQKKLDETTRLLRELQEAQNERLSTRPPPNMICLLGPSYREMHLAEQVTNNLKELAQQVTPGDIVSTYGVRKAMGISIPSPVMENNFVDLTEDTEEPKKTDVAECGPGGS

molecular target: T1, H2A.B N-terminal peptide phosphorylated at S9 (human); assay: affinity purification with mass spectrometry; SILAC: biotinylated unmodified or S9ph H2A.B N-terminal peptide on streptavidin beads, L428 nuclear extract, 2 h at 4 C, binding buffer with NP-40 reduced to 0.1%; washes with 350 mM NaCl; LC-MS/MS; only the target purified
T1 sequence (peptide, phosphoserine at S9; C-terminally biotinylated): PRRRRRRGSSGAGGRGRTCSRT

binding | Substance
binds | HIRA (endogenous) (from UniProt P54198 1-1017)
binds | UBN2 (endogenous) (from UniProt Q6ZU65 1-1347)
binds | POLR1A/RPA194 (endogenous) (from UniProt O95602 1-1720)
binds | CABIN1 (endogenous) (from UniProt Q9Y6J0 1-2220)
binds | POLR1C/RPA40 (endogenous) (from UniProt O15160 1-346)
binds | UBN1 (endogenous) (from UniProt Q9NPG3 1-1134)

molecular target: T2, H2A.B N-terminal peptide asymmetrically dimethylated at R7 (human); assay: affinity purification with mass spectrometry; SILAC: biotinylated unmodified, R7me, R7me2a or R15me H2A.B N-terminal peptides on streptavidin beads, L428 nuclear extract (0.6 mg/ml), 2 h at 4 C, 50 mM tris-HCl pH 8.0, 150 mM NaCl, 1% NP-40; washes with 350 mM NaCl; LC-MS/MS; only the target …
T2 sequence (peptide, asymmetric dimethylarginine (ADMA) at R7; C-terminally biotinylated): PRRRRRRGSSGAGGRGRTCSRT

binding | Substance
binds | BRM (endogenous) (from UniProt P51531 1-1590)
binds | PBRM1 (endogenous) (from UniProt Q86U86 1-1689)
binds | ACTL6A (endogenous) (from UniProt O96019 1-429)
binds | SMARCC2 (endogenous) (from UniProt Q8TAQ2 1-1214)
binds | BRD9 (endogenous) (from UniProt Q9H8M2 1-597)
binds | SMARCC1 (endogenous) (from UniProt Q92922 1-1105)
binds | BRD7 (endogenous) (from UniProt Q9NPI1 1-651)
